Experimental findings from paper PMC2654563 are described below.

The chains behind the UniProt entries cited, without tags or fusion partners. Where a name states a change or a piece, a line headed by the entry shows the natural chain unless it says otherwise.
UniProt P0ACJ8: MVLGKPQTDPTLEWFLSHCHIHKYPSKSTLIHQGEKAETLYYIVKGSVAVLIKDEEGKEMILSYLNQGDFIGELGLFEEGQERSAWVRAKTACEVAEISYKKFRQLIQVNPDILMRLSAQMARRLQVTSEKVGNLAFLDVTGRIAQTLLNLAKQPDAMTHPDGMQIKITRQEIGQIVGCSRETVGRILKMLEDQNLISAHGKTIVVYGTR

For at least one entry, the source does not settle the construct or the ends of the probe. At least one verdict was read from the data and is not stated in words by the source.

The data set concerns the target CAP (catabolite activator protein, CRP) (Escherichia coli) (UniProt P0ACJ8). As to the kind of experiment: EMSA. The note with it: 0.2 mM cAMP, 4 mM MgCl2, EMSA: 20 mM Tris-HCl pH 8.0, 40 mM NaCl, 4 mM MgCl2, 0.1 mM EDTA, 1 mM DTT, 10 ug/ml salmon sperm DNA, 6% glycerol, CAP 0-1000 nM, temperature not stated, recombinant protein, protein details: His6, label: 5'-32P top strand.

For the sequence “CCTAATGAGTGAGCTAACTCACATTAATTG (double strand) [Lac site]”, the binding result was “binds”.
